The record followed here is publication PMC12499889, “Voltage-matrix nanopore profiling for the discrimination of protein mixtures”.

The exact form of at least one protein or probe is not confirmed. Protein sequences can lack the tags named with them.

The data set addresses T1, carcinoembryonic antigen (CEA) (UniProt P06731).
T1 sequence (looked up, limits assumed): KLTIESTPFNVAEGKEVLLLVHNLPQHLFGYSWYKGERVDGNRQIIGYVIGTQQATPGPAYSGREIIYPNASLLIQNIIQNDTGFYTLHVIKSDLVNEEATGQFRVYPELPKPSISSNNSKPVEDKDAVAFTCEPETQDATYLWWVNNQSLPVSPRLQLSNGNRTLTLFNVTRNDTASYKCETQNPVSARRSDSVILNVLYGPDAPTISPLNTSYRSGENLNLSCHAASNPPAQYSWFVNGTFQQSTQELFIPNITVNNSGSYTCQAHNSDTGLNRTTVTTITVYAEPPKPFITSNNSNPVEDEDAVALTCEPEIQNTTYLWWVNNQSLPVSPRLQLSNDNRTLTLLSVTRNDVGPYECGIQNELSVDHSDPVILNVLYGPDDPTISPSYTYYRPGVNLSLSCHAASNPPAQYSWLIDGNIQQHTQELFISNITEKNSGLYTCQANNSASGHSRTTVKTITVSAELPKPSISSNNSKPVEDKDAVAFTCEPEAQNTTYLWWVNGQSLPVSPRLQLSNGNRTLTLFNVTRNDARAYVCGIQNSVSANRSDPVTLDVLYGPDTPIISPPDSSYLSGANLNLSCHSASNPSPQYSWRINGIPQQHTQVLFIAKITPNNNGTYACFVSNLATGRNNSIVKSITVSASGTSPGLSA
Description: binding assay. Conditions: reported value, assay method and conditions not given in this paper; 3.6 M LiCl, 10 mM HEPES-KOH pH 8.0; 1 uM aptamer incubated with 10 nM CEA for 1 h; temperature not stated; nanopore at -50 to -300 mV; commercial protein; single-stranded DNA.

For the sequence “TCGCGCGAGTCGTCTGGGAGCTACGTTTAGCGAGTCCGACGCTCGGTGCCTCTTCGGGAGGACGATGCGG [CEA DNA aptamer]”, the dissociation constant (Kd) (as a rule, the constant that tells how readily two partners part at equilibrium) turned out to be 37.8 nM.
